In patent US20250059278A1:
These are yes or no findings as the source states them, for the method shown. Some binding calls cover weakened binding; strength is not graded here.

Protein sequences, listed by entry. Tags and fused reporters are not part of them. Lines headed by an entry give the natural chain unless they say otherwise; changes in a name come on top. Chains listed by the source or under a name are the forms on record and can include a tag or linker. Residues count along the entry.
human MSLN-his (Kaika Biotech, MSL-HM18D) (Q13421, form named): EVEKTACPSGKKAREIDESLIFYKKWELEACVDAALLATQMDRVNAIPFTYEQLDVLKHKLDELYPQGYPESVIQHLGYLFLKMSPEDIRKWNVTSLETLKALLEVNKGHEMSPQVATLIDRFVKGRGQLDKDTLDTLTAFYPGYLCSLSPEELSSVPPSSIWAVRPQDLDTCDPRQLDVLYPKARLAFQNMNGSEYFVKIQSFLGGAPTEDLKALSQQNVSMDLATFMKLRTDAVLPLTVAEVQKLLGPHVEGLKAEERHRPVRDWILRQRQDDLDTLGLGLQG
UniProt Q61468, residues 298-600: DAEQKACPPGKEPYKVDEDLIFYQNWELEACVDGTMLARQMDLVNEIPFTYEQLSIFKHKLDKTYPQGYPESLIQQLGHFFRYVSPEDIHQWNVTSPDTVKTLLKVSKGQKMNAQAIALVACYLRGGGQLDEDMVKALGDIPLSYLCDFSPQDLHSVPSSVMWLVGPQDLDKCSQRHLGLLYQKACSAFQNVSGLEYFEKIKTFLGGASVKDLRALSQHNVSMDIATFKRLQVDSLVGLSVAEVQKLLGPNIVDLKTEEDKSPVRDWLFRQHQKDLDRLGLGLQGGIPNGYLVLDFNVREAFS

How the values were obtained:
[1] = molecular target: human MSLN-his (Kaika Biotech, MSL-HM18D) (human) (UniProt Q13421); assay: ELISA screening on coated MSLN-his
[2] = molecular target: mouse MSLN-his (Kaika Biotech, MSL-MM180) (mouse) (UniProt Q61468); assay: ELISA screening on coated MSLN-his

binding [1]: binds
binding [2]: binds
B1: MSLN single-domain antibody 3C6 (VHH)
VHH: EVQLVESGGGLVQAGESLRLSCAVSGNIGSIRHMGWHRQDPGKERELVATITTVGTTYYANFVKGRFTISRDNAKNTVYLQMNSLKPEDTGVYYCRATAHPTDYWGQGTQVTVSS
